PMC3510444, “LC3C, Bound Selectively by a Noncanonical LIR Motif in NDP52, Is Required for Antibacterial Autophagy” (Molecular Cell, 2012)
These are yes or no findings as the source states them, for the method shown. For some of these results: Binding seen in cells or lysates may run through a third protein. Some entries that bind do so weakly or less than the wild type.

What was measured:
[1] = biological target: FITC-labeled NDP52 CLIR peptide (aa 128-141), V136S (human) (UniProt Q13137); experiment: fluorescence polarisation; fluorescence anisotropy, equilibrium; purified ATG8 orthologs serially diluted and mixed with equal volumes of 100 nM FITC-labeled NDP52 peptides; PheraStar plate reader; both purified
[2] = biological target: GST-GABARAPL2 (human) (UniProt P60520); experiment: pull-down; LUMIER binding assay: lysates of 293ET cells expressing luciferase fusions incubated with purified GST-tagged proteins bound to beads; ratio of luciferase activity bound to beads and in lysates; only the target purified
[3] = biological target: GST-LC3A (human) (UniProt Q9H492); experiment: as above
[4] = biological target: GST-LC3C (human) (UniProt Q9BXW4); experiment: as above
[5] = biological target: GST-LC3C K32Q/F33H (human) (UniProt Q9BXW4); experiment: as above
[6] = biological target: GST-LC3C K32Q/F33H/L64V/F69L (human) (UniProt Q9BXW4); experiment: as above
[7] = biological target: GST-LC3C L64V/F69L (human) (UniProt Q9BXW4); experiment: as above
[8] = biological target: GST-GABARAP (human) (UniProt O95166); experiment: as above

binding [1] | binding [2] | binding [3] | binding [4] | binding [5] | binding [6] | binding [7] | binding [8] | Substance
no binding | – | – | – | – | – | – | – | LC3A, purified, for fluorescence anisotropy (from UniProt Q9H492 1-121)
– | binds | binds | binds | binds | binds | binds | – | p62 (SQSTM1) fused to luciferase (from UniProt Q13501 1-440)
– | binds | binds | – | – | – | – | binds | NDP52 I133W, full length, fused to luciferase (from UniProt Q13137 1-446)
